# According to the supplement of paper PMC4604168 (melanoma cell lines):
# This is one part of the list. Many values rest on one well or one pass, so single values are uncertain.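 The apoptosis fraction was the count of cleaved-PARP antibody-stained nuclei relative to all DNA-stained nuclei, imaged in 1,536-well plates. Screening doses were set so most cells survived, and baseline and induced cleaved-PARP levels vary greatly across cell lines.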
# What was measured:
# Assay in all cases: cleaved PARP positive nuclei fraction relative to DMSO control; melanoma cells; higher = more apoptosis
# Conditions in all cases: library dose: low library concentration; 72 h
# 501Mel = test system: 501Mel
# A101D = test system: A101D
# A2058 = test system: A2058
# C32 = test system: C32
# CBRC008 = test system: CBRC008 (line from a melanoma biopsy)
# CBRC014 = test system: CBRC014 (line from a melanoma biopsy)
# CBRC016 = test system: CBRC016 (line from a melanoma biopsy)
# CBRC017 = test system: CBRC017 (line from a melanoma biopsy)
# COLO792 = test system: COLO792
# COLO800 = test system: COLO800
# COLO829 = test system: COLO829
# G361 = test system: G361
# IPC-298 = test system: IPC-298
# IST-MEL1 = test system: IST-MEL1
# LB2518-MEL = test system: LB2518-MEL
# LOXIMVI = test system: LOXIMVI
# A375 = test system: A375
# CBRC034 = test system: CBRC034 (line from a melanoma biopsy)
# MEL-HO = test system: MEL-HO
Structure (SMILES),cleaved PARP positive nuclei fraction (501Mel),cleaved PARP positive nuclei fraction (A101D),cleaved PARP positive nuclei fraction (A2058),cleaved PARP positive nuclei fraction (C32),cleaved PARP positive nuclei fraction (CBRC008),cleaved PARP positive nuclei fraction (CBRC014),cleaved PARP positive nuclei fraction (CBRC016),cleaved PARP positive nuclei fraction (CBRC017),cleaved PARP positive nuclei fraction (COLO792),cleaved PARP positive nuclei fraction (COLO800),cleaved PARP positive nuclei fraction (COLO829),cleaved PARP positive nuclei fraction (G361),cleaved PARP positive nuclei fraction (IPC-298),cleaved PARP positive nuclei fraction (IST-MEL1),cleaved PARP positive nuclei fraction (LB2518-MEL),cleaved PARP positive nuclei fraction (LOXIMVI),cleaved PARP positive nuclei fraction (A375),cleaved PARP positive nuclei fraction (CBRC034),cleaved PARP positive nuclei fraction (MEL-HO)
"CNC(=O)c1cc(Oc2ccc(NC(=O)Nc3ccc(Cl)c(C(F)(F)F)c3)cc2)ccn1 [sorafenib] + O=c1cc(-c2cccc3c2Sc2ccccc2S3)oc(N2CCOCC2)c1 [KU55933] (first compound 0.4 µM, partner dose 1 µM)",89.4%,46.3%,23.6%,159%,345%,98.1%,41.8%,103%,136%,38.7%,29.3%,117%,196%,67.3%,173%,173%,–,–,–
"O=C(O)[C@@H]1[O][Sb](=[O])([O][Sb]2(=[O])[O][C@H]([C@H](O)CO)[C@H](O)[C@H](C(=O)O)[O]2)[O][C@H]([C@H](O)CO)[C@@H]1O (stereo not given in full) [stibogluconate] + Cc1cc([N+](=O)[O-])ccc1NS(=O)(=O)c1cc(Cl)ccc1Cl [FH535] (first compound 2 µM, partner dose 1 µM)",65.7%,48.6%,174%,35%,766%,178%,996%,301%,50.7%,45.8%,93%,66.5%,53.5%,78.6%,153%,111%,–,–,–
"CNC(=O)c1cc(Oc2ccc(NC(=O)Nc3ccc(Cl)c(C(F)(F)F)c3)cc2)ccn1 [sorafenib] + O=C1NC(=O)/C(=C/c2ccc(-c3ccc(F)cc3O)o2)S1 [AS252424] (first compound 0.4 µM, partner dose 1 µM)",78.5%,11.4%,69.1%,81.3%,140%,98.2%,29.9%,81.5%,126%,30.3%,34.3%,60.1%,203%,160%,31.5%,65.6%,–,–,–
"C=C(c1ccc(C(=O)O)cc1)c1cc2c(cc1C)C(C)(C)CCC2(C)C [Bexarotene] + COc1cc2ncnc(Nc3ccc(Oc4ccccc4)cc3)c2cc1OC [SrcI1] (first compound 2 µM, partner dose 2 µM)",208%,7.4%,268%,38.2%,225%,85.2%,219%,115%,75%,17.8%,182%,168%,155%,123%,80.9%,54.1%,–,–,–
"CCCS(=O)(=O)Nc1ccc(F)c(C(=O)c2c[nH]c3ncc(Cl)cc23)c1F + O=C(Nc1ccccc1)c1cc([N+](=O)[O-])ccc1Cl [GW9662] (first compound 0.08 µM, partner dose 2 µM)",181%,23.1%,91.2%,90.1%,261%,106%,36.5%,124%,111%,19.4%,95.5%,156%,197%,163%,64.9%,28.3%,–,–,–
"CO[C@H]1C[C@@H]2CC[C@@H](C)[C@@](O)(O2)C(=O)C(=O)N2CCCC[C@H]2C(=O)O[C@H]([C@H](C)C[C@@H]2CC[C@@H](OCCO)[C@H](OC)C2)CC(=O)[C@H](C)/C=C(\C)[C@@H](O)[C@@H](OC)C(=O)[C@H](C)C[C@H](C)/C=C/C=C/C=C/1C [everolimus] + O=c1cc(-c2cccc3c2Sc2ccccc2S3)oc(N2CCOCC2)c1 [KU55933] (first compound 0.02 µM, partner dose 1 µM)",94.1%,8.72%,124%,126%,265%,178%,444%,105%,130%,120%,78.7%,236%,175%,46.5%,82.1%,459%,–,–,–
"CO[C@H]1C[C@@H]2CC[C@@H](C)[C@@](O)(O2)C(=O)C(=O)N2CCCC[C@H]2C(=O)O[C@H]([C@H](C)C[C@@H]2CC[C@@H](OCCO)[C@H](OC)C2)CC(=O)[C@H](C)/C=C(\C)[C@@H](O)[C@@H](OC)C(=O)[C@H](C)C[C@H](C)/C=C/C=C/C=C/1C [everolimus] + Cn1cc(/C=C2\C(=O)Nc3cccnc32)c2ccccc21 [GW441756] (first compound 0.02 µM, partner dose 0.4 µM)",108%,71.7%,224%,42.9%,279%,113%,48%,122%,165%,79.4%,117%,215%,571%,89.8%,169%,86%,–,–,–
"CO[C@H]1C[C@@H]2CC[C@@H](C)[C@@](O)(O2)C(=O)C(=O)N2CCCC[C@H]2C(=O)O[C@H]([C@H](C)C[C@@H]2CC[C@@H](OCCO)[C@H](OC)C2)CC(=O)[C@H](C)/C=C(\C)[C@@H](O)[C@@H](OC)C(=O)[C@H](C)C[C@H](C)/C=C/C=C/C=C/1C [everolimus] + COc1ccc2c(c1)CCC1C2CCC2(C)C(NCCCCCCN3C(=O)C=CC3=O)CCC12 [U73122] (first compound 0.02 µM, partner dose 0.4 µM)",109%,37.1%,89.3%,150%,291%,112%,220%,147%,139%,126%,201%,127%,133%,97.1%,96.1%,237%,–,–,–
"C[C@@H](Oc1cc(-c2cnn(C3CCNCC3)c2)cnc1N)c1c(Cl)ccc(F)c1Cl [Crizotinib] + O=C(O)C(=O)Nc1sc2c(c1C(=O)O)CCNC2 [TCS401] (first compound 0.2 µM, partner dose 1.66667 µM)",76.5%,14.5%,82.7%,28%,136%,91.8%,66%,210%,73.5%,25.4%,173%,136%,92.8%,69.8%,101%,28.5%,–,–,–
"C=C(c1ccc(C(=O)O)cc1)c1cc2c(cc1C)C(C)(C)CCC2(C)C [Bexarotene] + N#Cc1c(O)c2c(-c3ccc(-c4ccccc4O)cc3)csc2[nH]c1=O [A769662] (first compound 2 µM, partner dose 2 µM)",83.6%,43.6%,41.4%,40.5%,131%,132%,339%,171%,140%,41.3%,195%,131%,368%,51.3%,63.9%,60.8%,–,–,–
"C=C(c1ccc(C(=O)O)cc1)c1cc2c(cc1C)C(C)(C)CCC2(C)C [Bexarotene] + CC(C)CCN1c2nc(Nc3cc(F)c(O)c(F)c3)ncc2N(C)C(=O)C1C [BID1870] (first compound 2 µM, partner dose 0.2 µM)",31.4%,14.5%,63.6%,39.3%,192%,141%,154%,130%,113%,67.6%,113%,152%,104%,118%,68.4%,48%,–,–,–
"O=C(O)c1ccc2c(c1)nc(Nc1cccc(Cl)c1)c1ccncc12 + CCCCCCCCCCCC1=C(O)C(=O)C=C(O)C1=O [Embelin] (first compound 0.4 µM, partner dose 1.2 µM)",61.2%,35.8%,50.9%,189%,51.2%,253%,139%,135%,189%,15.7%,124%,169%,101%,85.9%,208%,126%,–,–,–
"Cc1cc(Nc2cc(N3CCN(C)CC3)nc(/C=C/c3ccccc3)n2)n[nH]1 + Cc1cc([N+](=O)[O-])ccc1NS(=O)(=O)c1cc(Cl)ccc1Cl [FH535] (first compound 0.04 µM, partner dose 1 µM)",69.4%,31.9%,108%,42.3%,245%,123%,630%,217%,124%,179%,52.1%,112%,47.2%,119%,86.4%,170%,–,–,–
"CS(=O)(=O)CCNCc1ccc(-c2ccc3ncnc(Nc4ccc(OCc5cccc(F)c5)c(Cl)c4)c3c2)o1 [lapatinib] + CCc1ccc(CCOc2ccc(CC3SC(=O)NC3=O)cc2)nc1 [pioglitazone] (first compound 0.8 µM, partner dose 2 µM)",115%,25.5%,227%,252%,112%,114%,35.9%,113%,100%,100%,112%,105%,94.1%,181%,80.4%,37.6%,–,–,–
"Cc1cc(Nc2cc(N3CCN(C)CC3)nc(/C=C/c3ccccc3)n2)n[nH]1 + C[C@@H](Oc1cc(-c2cnn(C3CCNCC3)c2)cnc1N)c1c(Cl)ccc(F)c1Cl [Crizotinib] (first compound 0.04 µM, partner dose 0.2 µM)",183%,50.8%,155%,–,195%,208%,122%,115%,112%,66%,59.9%,120%,55.7%,96.8%,102%,142%,128%,60.4%,61.9%
"CS(=O)(=O)CCNCc1ccc(-c2ccc3ncnc(Nc4ccc(OCc5cccc(F)c5)c(Cl)c4)c3c2)o1 [lapatinib] + Oc1cc(-c2nc(-c3ccccc3)[nH]c2-c2ccncc2)ccc1Cl [L779450] (first compound 0.8 µM, partner dose 0.2 µM)",49.2%,13.1%,58.3%,103%,163%,99.9%,61.5%,107%,109%,109%,89%,56.2%,42.3%,81.2%,81.5%,82.5%,–,–,–
"Nc1nc(F)nc2c1ncn2[C@@H]1O[C@H](CO)[C@@H](O)[C@@H]1O [fludarabine] + COc1ccc(COc2ccc(Cc3cnc(N)nc3N)cc2OC)cc1 [GW2580] (first compound 0.2 µM, partner dose 1 µM)",2300%,18.6%,129%,81%,124%,75.4%,22.9%,109%,103%,98.3%,104%,150%,336%,143%,47.4%,69.6%,–,–,–
"Nc1ccn([C@@H]2O[C@H](CO)[C@@H](O)C2(F)F)c(=O)n1 [gemcitabine] + CC(C)CCN1c2nc(Nc3cc(F)c(O)c(F)c3)ncc2N(C)C(=O)C1C [BID1870] (first compound 0.0004 µM, partner dose 0.2 µM)",68.9%,32.7%,91.1%,37.8%,112%,149%,174%,146%,61.7%,128%,46.7%,278%,102%,107%,43.3%,152%,–,–,–
